In this test the target is T1, TNF alpha (UniProt P01375 77-233, limits assumed).
T1 construct: also called tumour necrosis factor; TNFSF2
The test is described as follows: phage ELISA on coated TNF.

Protein sequences, listed by entry. Tags and fused reporters are not part of them. Residues count along the entry.
UniProt P01375, residues 77-233: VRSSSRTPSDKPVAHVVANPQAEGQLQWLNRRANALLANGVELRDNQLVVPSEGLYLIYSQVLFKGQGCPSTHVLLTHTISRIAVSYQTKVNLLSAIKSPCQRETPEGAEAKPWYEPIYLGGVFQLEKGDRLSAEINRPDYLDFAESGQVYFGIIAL

Experimental findings from US20070010658A1 (published 2007) are described below.

Results are given in words; binding and its absence hold for the method and conditions named. Some results given as binding are weak or reduced against the parent protein; the word gives no strength.

B1: TN3-2-B (monomeric) (designed binder)
chain: ALQTVCLKGTKVHMKCFLAFTQTKTFHEASEDCISRGGTLSTPQTGSENDALYEYLRQSVGNEAEIWLGLNKVRSRYFWMDMTGTRIAYKNWETEITAQPDPTNNENCAVLSGAANGKWFGKRCRDQLPYICQFGIV
notes: Purified monomer from the E. coli periplasm (pBAD) for SPR
Turning to B1, the binding entry is recorded as “binds”.

B2: TN3-2-C (monomeric) (designed binder)
chain: ALQTVCLKGTKVHMKCFLAFTQTKTFHEASEDCISRGGTLSTPQTGSENDALYEYLRQSVGNEAEIWLGLNKVRSRYFWVDMTGTRIAYKNWETEITAQPDPTNRENCAVLSGAANGKWFDKRCRDQLPYICQFGIV
notes: as for B1
With B2, the binding entry was “binds”.

B3: TN3-2-D (monomeric) (designed binder)
chain: ALQTVCLKGTKVHMKCFLAFTQTKTFHEASEDCISRGGTLSTPQTGSENDALYEYLRQSVGNEAEIWLGLNKVRSRYFWIDMTGTRIAYKNWETEITAQPDPNNRENCAVLSGAANGKWFGKRCRDQLPYICQFGIV
notes: as for B1
On to B3, for which the binding entry was “binds”.
